# Measured values published in PubChem BioAssay AID504834 (National Center for Advancing Translational Sciences (NCATS), 2011).
# Out of some 320,000 compounds screened, about 22,000 (6.9%) were called active. Inconclusive means that the source gave no clear call. Such entries were picked first, then a sample of the others. The call rests on the fitted dose curve; in most records, active means well fitted inhibition curve with a large enough effect; inconclusive means small, poorly fitted or top-dose-only effect, or another doubt; inactive means no such curve, though single readings can be large or run the other way. Potencies of inconclusive entries are doubtful fits and often do not repeat.
# Experiment: Primary qHTS for delayed death inhibitors of the malarial parasite plastid, 96 hour incubation
# Details: P. falciparum luciferase reporter growth; series mostly up to 28.7 µM; activity change, negative = inhibition: at the top concentration
# Summary of the method: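 Plates of compound plus infected erythrocytes (2% hematocrit, 0.05% parasitemia final) incubate 96 hours, 37 C, 5% CO2. Detection reagent added; reduced luminescence from the parasites' luciferase reporter flags inhibition.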
# On the % scale 0 is the no-effect control and ±100 the full control effect; potency means the concentration at half of the fitted maximal effect.
Compound,Potency,"activity change, negative = inhibition"
O=C(NC(=S)Nc1ccc(CN2CCOCC2)cc1)c1ccc([N+](=O)[O-])cc1Cl,"inconclusive: 10.4 µM [inhibitor, partial curve, poor fit]",
CC(C1CC2CCC1C2)n1c(COc2ccccc2F)nnc1SCC(N)=O (stereo not given),"inconclusive: 10.4 µM [inhibitor, partial curve, poor fit]",
CC(C)CN1C(=O)c2ccc(C(=O)Nc3nccs3)cc2C1=O,"inconclusive: 16.5 µM [inhibitor, single point]",
CCN(Cc1cc(=O)n2ccsc2n1)Cc1nc2ccccc2c(=O)[nH]1,"inconclusive: 5.22 µM [inhibitor, partial curve]",
O=C(CCS(=O)(=O)c1ccccc1Cl)NCCC1=CCCCC1,,inactive: 62.3%
CC(=O)Nc1ccccc1OCC(=O)c1ccc2c(c1)OCO2,,inactive: 50%
O=C(NCc1ccc(Cl)cc1)c1cccc(NC(=O)c2ccccc2)c1,"inconclusive: 18.5 µM [inhibitor, single point]",
CC1=NN(c2ccc(Cl)cc2)C(=O)/C1=C\c1cccn1-c1ccc(S(N)(=O)=O)cc1,"inconclusive: 18.5 µM [inhibitor, single point]",
C=CCOC(=O)C1=C(C)OC(N)=C(C#N)C1c1c(C)nn(-c2ccccc2)c1Cl (stereo not given),"inconclusive: 11.7 µM [inhibitor, single point]",
CN1CCN(c2nc(N3CCN(CCO)CC3)nc3ccccc23)CC1,"inconclusive: 1.31 µM [inhibitor, partial curve, poor fit]",
COc1ccc2nc(Cl)c(C3CC(c4ccco4)=NN3C(=O)CCC(=O)O)cc2c1 (stereo not given),"inconclusive: 18.5 µM [inhibitor, single point]",
Cc1ccc(NC(=O)Cc2ccc(Cl)c(Cl)c2)cc1S(=O)(=O)N(C)C,,inactive: -77.3%
O=C(CS(=O)(=O)c1ccccc1)Nc1cccnc1,,inactive: 58.6%
O=C(Nc1cccc(C(F)(F)F)c1)C1=CC=CN2CCS(=O)(=O)N=C12,,inactive: -15.3%
CSc1ccc(/C=C/C(=O)OCC(=O)NC2CC2)cc1,"inconclusive: 1.04 µM [inhibitor, partial curve, poor fit]",
COc1ccccc1OCCNC(=O)c1cccc(S(=O)(=O)N2CC(C)OC(C)C2)c1 (stereo not given),"inconclusive: 11.7 µM [inhibitor, partial curve, poor fit]",
CC(C)(C)c1ccc(OCCC(=O)Nc2ccc(N3CCOCC3)cc2N2CCOCC2)cc1,"inconclusive: 13.1 µM [inhibitor, partial curve]",
Cc1ccnc2nc(C(=O)OCC(=O)N(CC(C)C)C3CCS(=O)(=O)C3)nn12 (stereo not given),"inconclusive: 18.5 µM [inhibitor, single point]",
C=CCn1c(SCC(=O)Nc2ccc3c(c2)CCC3)nnc1-c1cccs1,"inconclusive: 0.0738 µM [inhibitor, full curve, poor fit]",
Cn1c(=O)c2c(nc(NCC3CCCO3)n2Cc2cccc(Br)c2)n(C)c1=O (stereo not given),,inactive: -3.09%
S=c1[nH]nc(Nc2ccc(Cl)cc2)s1,,inactive: 90.1%
CC1CCN(S(=O)(=O)c2ccc3c(c2)CCN3C(=O)C2CCC2)CC1,"inconclusive: 18.5 µM [inhibitor, single point]",
COc1ccc(CNc2ccccn2)c(O)c1,"inconclusive: 13.1 µM [inhibitor, single point]",
O=C(Cn1c(=O)oc2cc(S(=O)(=O)NCc3ccccc3)ccc21)NCc1ccco1,"inconclusive: 18.5 µM [inhibitor, single point]",

Compound,Potency,"activity change, negative = inhibition"
COc1ccc(S(=O)(=O)N2CCCCCC2)cc1N(C)S(=O)(=O)c1ccc(C)cc1,active: 10.4 µM,
O=C(CCN1CCCCO1)N1CCCC(Nc2cccc(F)c2)C1 (stereo not given),"inconclusive: 11.7 µM [inhibitor, single point]",
COC(=O)COc1ccc(NC(=O)C2CCCO2)cc1 (stereo not given),"inconclusive: 11.7 µM [inhibitor, partial curve, poor fit]",
COc1ccc(C(=O)OC(C)C(=O)NC2CCCc3ccccc32)cc1OC (stereo not given),,inactive: -30.5%
Cc1cc(NC(=O)c2cc(-c3ccco3)on2)n(-c2ccccc2)n1,,inactive: 144%
Cc1ccc(CNC(=O)CNC(=O)c2c(C)nn(C)c2Cl)cc1,,inactive: 4.07%
COc1ccc(N(CC(=O)NCc2ccc(F)cc2)C(=O)CCC(=O)Nc2nccs2)cc1,"inconclusive: 0.522 µM [inhibitor, full curve, poor fit]",
Cc1ccc2nc(NC3=NCN(CCc4ccccc4)CN3)nc(C)c2c1,"inconclusive: 13.1 µM [inhibitor, partial curve, poor fit]",
Cc1ccc(-c2cccc(C(=O)NCCc3ccccc3)n2)c2ccccc12,,inactive: -16.4%
Cc1ccc(C(=O)N2CCC(C(=O)NC3CCCCCC3)CC2)cc1,"inconclusive: 10.4 µM [inhibitor, single point]",
CCOC(=O)c1c(NC(C)=O)sc2c(OCCN(CC)CC)c(Br)ccc12,,inactive: 89.4%
CCc1nn(C(C)C(=O)NCc2ccc(Cl)cc2)c(=O)c2cc3occc3n12 (stereo not given),"inconclusive: 13.1 µM [inhibitor, partial curve, poor fit]",
C=CCSC1=C(C#N)C(c2ccccc2Cl)CC(=O)N1 (stereo not given),active: 3.29 µM,
COC(=O)c1cccc(NC(=O)Cn2nnc3ccccc32)c1,"inconclusive: 0.165 µM [inhibitor, full curve, poor fit]",
Cc1ccc(NC(=O)N/C=C/c2ccc(Cl)cc2)cc1,"inconclusive: 4.15 µM [inhibitor, single point]",
Cc1oc2c(C)c(O)ccc2c(=O)c1-c1ccc2ccccc2n1,"inconclusive: 5.22 µM [inhibitor, partial curve, poor fit]",
Cc1ccc(C(=O)N/N=C\c2cccn2C)cn1,"inconclusive: 2.33 µM [inhibitor, partial curve, poor fit]",
CCOc1ccc(Cn2c(=O)oc3ccccc32)cc1,"inconclusive: 18.5 µM [inhibitor, single point]",
Cc1ccc(S(=O)(=O)N(C)C)cc1NC(=O)CSc1nnc(C2CC2)n1C1CC1,,inactive: -16.1%
Cc1ccc(-n2nnnc2SCC(=O)Nc2cc(C)on2)c(C)c1,"inconclusive: 11.7 µM [inhibitor, partial curve]",
CCOC(=O)N1CCC(Nc2c(-c3ccc(C)c(C)c3)c(=O)c2=O)CC1,active: 0.522 µM,
O=C(NCc1cccs1)C1CCN(S(=O)(=O)c2ccc(Br)s2)CC1,,inactive: 20.3%
CCn1c2ccccc2c2cc(NC(=O)c3cc(OC)c(OC)c(OC)c3)ccc21,"inconclusive: 2.08 µM [inhibitor, partial curve]",
O=C1CSC(c2ccc([N+](=O)[O-])cc2)N1c1ccccc1 (stereo not given),"inconclusive: 11.7 µM [inhibitor, single point]",

Compound,Potency,"activity change, negative = inhibition"
CC1(C)Cc2cccc(OCC(=O)OCC(=O)Nc3ccccc3)c2O1,,inactive: 23.9%
CC1(C)CC(=O)C2=C(C1)N(c1cccnc1)C(N)=C(C#N)C2c1cccs1 (stereo not given),"inconclusive: 3.7 µM [inhibitor, partial curve]",
CCOC(=O)CNc1c(-c2ccc(O)cc2)nc2ccc(Cl)cn12,"inconclusive: 18.5 µM [inhibitor, single point]",
Cc1ccc(C(=O)C[n+]2cccc(C(N)=O)c2)cc1,,inactive: 18.4%
CCN(CC)CCNCc1ccc(Br)cc1OCC(=O)NCc1ccccc1,,inactive: 52.1% [at 5.75 µM]
O=C1C(=O)c2ccccc2C(O)=C1C1CCC(c2ccc(Cl)cc2)CC1 (stereo not given),active: 0.0005 µM,
Cc1ccc(CN=C(N)Nc2nc(C)cc(C)n2)cc1,,inactive: 15.3%
Cc1ccc(C2=CC(=O)C[C@H](c3ccc4c(c3)OCO4)C2)cc1,"inconclusive: 5.22 µM [inhibitor, single point]",
COc1ccc(-n2nc(C(=O)NCC(=O)Nc3cc(C)ccc3OC)c3ccccc3c2=O)c(OC)c1,"inconclusive: 18.5 µM [inhibitor, single point]",
CCN(CC)S(=O)(=O)N1CCC(C(=O)NCc2ccc3c(c2)OCO3)CC1,active: 2.62 µM,
COC(=O)Cc1cn(-c2ncc(C(F)(F)F)cc2Cl)c2ccccc12,"inconclusive: 9.28 µM [inhibitor, single point]",
CCOC(=O)Cc1csc(NC(=O)c2ccncc2)n1,,inactive: 33.5%
O=C(CCN1CCN(c2ccccc2F)CC1)Nc1ccccc1F,,inactive: -8.23%
Cc1ccc(SCc2cn3c(C)csc3n2)cc1,"inconclusive: 0.329 µM [inhibitor, partial curve, poor fit]",
O=C(CN1CCN(S(=O)(=O)c2ccc(F)cc2)CC1)Nc1ccc(F)cc1F,"inconclusive: 18.5 µM [inhibitor, single point]",
CCOc1ccccc1-c1nc(C(N)=O)c2[nH]c(=O)n(-c3ccc(F)cc3)c2n1,"inconclusive: 13.1 µM [inhibitor, single point]",
Cc1ccccc1Nc1nc(N)nc(CSc2n[nH]c(N)n2)n1,,inactive: 39.9%
O=C(NCc1ccc2c(c1)OCO2)c1ccc(COc2cccc(Cl)c2)o1,"inconclusive: 18.5 µM [inhibitor, single point]",
Cc1ccc(N(C)S(=O)(=O)c2ccc3[nH]cc(C(=O)NCCCN4CCOCC4)c(=O)c3c2)cc1C,"inconclusive: 11.7 µM [inhibitor, single point]",
Cc1ccc(C)c(OCc2cc(C(=O)N3CCN(c4ccccc4C)CC3C)no2)c1 (stereo not given),active: 11.7 µM,
Cc1cccc(C)c1OCC(=O)Nc1ccncc1,"inconclusive: 18.5 µM [inhibitor, single point]",
CCOC(=O)c1c(C)[nH]c(C)c1S(=O)(=O)N(C)CC(=O)Nc1cccc(C)c1,"inconclusive: 18.5 µM [inhibitor, single point]",

# One compound at a time, as listed above:
# COC(=O)Cc1cn(-c2ncc(C(F)(F)F)cc2Cl)c2ccccc12 is entered as Potency: inconclusive: 9.28 µM [inhibitor, single point]
# CC1(C)CC(=O)C2=C(C1)N(c1cccnc1)C(N)=C(C#N)C2c1cccs1 (stereo not given) is entered as Potency: inconclusive: 3.7 µM [inhibitor, partial curve]
